Screen size: about 31,000 sequences; about 1,400 (4.5%) were called active.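 How the source made its calls: active means median seed-adjusted z-score above 1 or below -1; inactive means the rest.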 The list shows a part of the results.
test: Novel Modifiers of Survival Motor Neuron (SMN) Protein: Gene Identification via Genome-wide siRNA Screen; conditions: HEK293T SMN2-luciferase reporter, siRNA knockdown, 72 h; actives lie on both sides;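 further: luminescence tracks full-length SMN protein made from the SMN2 reporter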
Procedure, shortened: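 Each of three siRNAs per gene is reverse-transfected (1 pmol) into reporter HEK293T cells whose luciferase output tracks SMN protein level. After 72 h culture, ONE-Glo luminescence is control-normalized, log10-transformed and MAD-standardized; Common Seed Analysis deprioritizes seed-driven hits.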

Sequence | median seed-adjusted z-score
GGCUUAUUUGAAUACGUAATT against SRD5A1 | inactive: 0.0945
GAGAGUUUAUGUUCGAGAATT against MCF2 | inactive: 0.51
GCAUUACAAGAUCCGCAAATT against FGR | inactive: 0.596
ACUAGCUGCUGGACAUGAATT against GJA1 | inactive: 0.348
CGAUUAUACUUUGACGACATT against ETV5 | inactive: 0.0756
CAAAAGCAGUUCGACAAAATT against ALDH1A3 | inactive: 0.228
GGACGAGACUCAGAGUCAUTT against CD93 | inactive: -0.0879
GCCUCUUCUUCAACCGCGATT against SLC19A1 | inactive: 0
CUGUCUGCGGGUUCUUUUATT against NAT14 | inactive: -0.283
GAUCUGGUCGAGUUUAAAATT against NAT2 | inactive: -0.0495
GGCCCAGAAUCGAAUCCAATT against MST1R | inactive: -0.278
GCAGCUACCUGAGUGUCAATT against ALX4 | inactive: -0.121
GUAUAUCAGGGAAUUAGGATT against UROS | inactive: -0.248
GCUACUUCUCAGUUGCUAATT against NDST4 | inactive: 0.426
GAAUGGAGCCCAAACAGAUTT against ACOT8 | inactive: 0.0643
ACAUUGAGGUGAUGAGGUUTT against PPP1R12C | inactive: -0.535
GCAAUGGGAUACUAAGCUATT against PCDHAC1 | inactive: -0.189
GACUGGUACCUCUUAAUCATT against HEATR6 | inactive: 0
CCACUAAUGCAGAUCCUGUTT against CP | inactive: 0.188
GAGAGUACAUCGCACUGUATT against GOLGA2L1 | inactive: 0.487
GAGUCGCACUUCUCCAGUATT against KCNA1 | inactive: -0.277
GGCACGCGCUCUCAAUGAATT against ZC3H7B | inactive: -0.093
GCCCUUCUCCUGUAGCCUUTT against ZBTB32 | inactive: 0.458
GCCUGAACGAGAAGGAUGATT against CHRNB1 | inactive: 0.16
GGAAGUGAGUCAUCACAAATT against EIF4B | inactive: -0.374
GGCUUGGGCUAGUAAGGAUTT against MCM7 | inactive: 0.0993
GGGUCUGGACUAUAGUGUATT against CASP4 | inactive: -0.564

Sequence | median seed-adjusted z-score
GAACUGUCAAAUGCACGUATT against TRIP11 | inactive: 0.333
CCAUUGAUGGAGUCAGAUUTT against POLD2 | inactive: 0.97
CGCGAGAUCCAGUACGUCATT against ATF5 | inactive: 0.233
GGUGCGGUCCAUUAAUUGATT against TARSL2 | inactive: 0.361
GCUGUGAAACGGACAUUGATT against NELL2 | inactive: 0.0918
GAUGUCCUCGAGAUACUAATT against HAO1 | inactive: 0.421
CGGCUGAGCGAGAAAAAGATT against ICAM4 | inactive: -0.338
GCAUGGUUCAAACGAAGGATT against PTPN20B | inactive: -0.62
CCAACUGUGUGGCAGAACGTT against FKBP9L | inactive: 0.666
GUUAUCCUCUAAUUGAUAATT against B3GALNT1 | inactive: 0.128
CCUCAAUGAUGUUGUCAAATT against VPS26B | inactive: -0.038
GGGAUACAUUUAAGCGCAATT against SYTL2 | inactive: 0.211
AGACAGGAAGAGCUCAAUATT against MYL3 | inactive: 0.212
GGAUGGGUAUGGUCAAGAUTT against CPT1A | inactive: 0.129
GGAAGGUGAUGACCGUCUATT against CIT | inactive: -0.0585
UGACUUCGACUAUCUCAAATT against AKT2 | inactive: 0
GACCUUCCUAGUUUCCUGATT against GIPC1 | inactive: 0
CCACCGUGAUUCAUCUUCUTT against CALML3 | inactive: 0
GAUUGUGACUUUACAACUATT against ZNF711 | inactive: 0.254
UGCUGCCUAUGGUCAGAUATT against BRUNOL4 | inactive: 0
GGUGGACUCGGUGAAGACATT against SLC25A37 | inactive: -0.0821
GGAUUAUCUGUUCUCCGUUTT against SCN1A | inactive: 0.031
GCAACAUCGUGGAUAAGUUTT against CDC25B | inactive: -0.0158
GGAUCAAUACAAAUACUAATT against ELTD1 | inactive: 0.387
GGCUGUCUGCUGUACGAGATT against NEK6 | inactive: -0.674
GUAUAGUCCAGACAAUUAUTT against RSHL3 | inactive: -0.407
GGGUGAAGCUGUCAGACUUTT against PAK4 | inactive: -0.742

A few values from above:
median seed-adjusted z-score with CGGCUGAGCGAGAAAAAGATT against ICAM4 reads inactive: -0.338
median seed-adjusted z-score with GGUGCGGUCCAUUAAUUGATT against TARSL2 reads inactive: 0.361
